PubChem BioAssay AID652243, Drosophila RNAi Screening Center – 2013
In all, the deposit lists about 24,000 reagents; shown is an unselected part of those with a known target gene and a result. Of all reagents, 246 (1%) were called active. 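Plates not normalised; calls are printed but the firefly/Renilla ratio behind them is not deposited; fold cut for lowering reported inconsistently.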 Raw values are not corrected between plates. Reagents against one gene are numbered here. A plus sign joins genes that one reagent is predicted to hit. Not stated in the record: the amount of reagent.

- Assay: 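Fly regulators of androgen-dependent reporter output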 (primary screen)
- Cell system: Drosophila S2R+ cells
- Reagents: long dsRNA against Drosophila genes
- Time to read-out: 72 h (48 h, then 24 h hormone)
- Treatment: synthetic androgen R1881 at 10 nM for 24 h
- Read-out: 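Per-well raw luminescence of the androgen-driven firefly reporter and of the Renilla control, two replicates each, without normalisation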
- Scale: firefly reporter light: higher = more light from androgen-responsive reporter; Renilla control light: higher = more constitutive control signal (cell number, transfection)
- Hit rule: 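Across duplicate plates, a knock-down whose log firefly/Renilla ratio shifted a set fold down or up from the GFP/LacZ control mean was a hit; the downward cut appears as both 1.5 and 3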
- Meaning of the calls: active = hit: reporter lowered or raised; inactive = no hit

no.	gene knocked down	reagent	firefly reporter light, replicate 1	firefly reporter light, replicate 2	Renilla control light, replicate 1	Renilla control light, replicate 2	activity call
1	CG7991	1	92789	94934	9.97e5	1.04e6	inactive
2	CG7991	2	6.65e5	6.55e5	9.45e5	9.45e5	inactive
3	r + CG13012	1	6.13e5	5.16e5	2.36e6	2.13e6	inactive
4	IntS1	1	6.84e5	8.26e5	1.05e6	1.10e6	inactive
5	IntS1	2	2.01e6	1.03e6	3.99e6	1.50e6	inactive
6	atos	1	2.65e5	2.11e5	1.57e6	1.24e6	inactive
7	HP5	1	1.40e5	1.20e5	7.42e5	7.30e5	inactive
8	HP5	2	3.80e5	3.15e5	9.03e5	4.61e5	inactive
9	CG11162	1	3.07e5	5.24e5	4.35e6	4.02e6	inactive
10	CG11162	2	1.07e6	8.74e5	1.17e6	1.16e6	inactive
11	Mst98Cb	1	3.63e5	3.82e5	2.24e6	2.18e6	inactive
12	Mst98Cb	2	6.03e5	8.36e5	5.22e5	1.05e6	inactive
13	Mst98Cb	3	5.99e5	5.87e5	4.06e5	4.51e5	inactive
14	Bet3	1	2.24e5	1.82e5	2.38e6	1.57e6	inactive
15	CG8910	1	64436	67017	1.21e6	1.21e6	inactive
16	CG8910	2	5.47e5	5.22e5	1.29e6	1.64e6	inactive
17	CG7650	1	3.68e5	7.48e5	1.05e6	2.00e6	inactive
18	CG7650	2	4.09e5	3.24e5	1.14e6	1.16e6	inactive
19	Ranbp16 + Lcch3	1	75513	1.15e5	5.50e5	5.74e5	inactive
20	sphinx1	1	1.20e5	1.15e5	1.20e6	9.77e5	inactive
21	sphinx1	2	4.69e5	4.87e5	4.86e5	4.70e5	inactive
22	CG31251	1	53056	1.01e5	6.47e5	8.36e5	inactive
23	lmgA + lmgB	1	1.57e5	1.65e5	1.29e6	1.41e6	inactive
24	lmgA + lmgB	2	4.33e5	4.62e5	5.72e5	5.94e5	inactive
25	CG15144	1	83104	86545	9.92e5	1.32e6	inactive
26	CG15144	2	4.65e5	3.13e5	5.02e5	3.15e5	inactive
27	CG31441	1	1.11e5	2.02e5	1.84e6	2.15e6	inactive
28	CG31441	2	2.21e5	3.25e5	7.11e5	7.32e5	inactive
29	btz	1	18207	13502	1.81e5	1.36e5	inactive
30	btz	2	9.91e5	7.88e5	1.17e6	9.03e5	inactive
31	CG3918	1	5.33e5	6.93e5	1.34e6	1.53e6	inactive
32	CG3918	2	4.38e5	5.14e5	1.17e6	1.14e6	inactive
33	nkt	1	2.87e5	2.94e5	2.35e6	2.49e6	inactive
34	tth	1	19508	19150	3.31e5	3.31e5	inactive
35	tth	2	3.64e5	3.79e5	6.59e5	5.51e5	inactive
36	Strump	1	1.38e5	1.25e5	1.21e6	1.22e6	inactive
37	Pka-R1	1	11014	12175	2.67e5	2.89e5	active
38	Pka-R1	2	26448	79516	6.06e5	3.90e5	inactive
39	Pka-R1	3	1.17e6	9.37e5	1.32e6	9.10e5	inactive
40	Pka-R1	4					inactive
41	Pka-R1	5					inactive
